# According to patent US20230123889A1, “METHOD FOR DEGRADING BENZO(A)PYRENE WITH A HALOPHILIC BACTERIUM STRAIN OF STAPHYLOCOCCUS HAEMOLITICUS” (KING FAHD UNIVERSITY OF PETROLEUM AND MINERALS, priority 2021, published 2023):
# Some entries share one result that the patent states for a list of compounds.
# Tested on: Staphylococcus haemoliticus 10SBZ1A strain
# Experiment: Bacterial growth assessment (doubling time, CFU/ml) in the presence of BZP and various hydrocarbon substrates as carbon source
# Assay type: cell-based
# Method: Bacterial growth assessment in the presence of BZP and various hydrocarbon molecules: effect of pH and salinity. To initiate these experiments, bacteria were pre-cultured in an LB rich medium, and around 5×10^5 colony forming units (CFU) of these bacteria were added to 50 ml BH medium containing 100 μmol BZP, unless otherwise stated. Non-polar substrates pyrene, phenanthrene, naphthalene and anthracene were dissolved in dimethyl sulfoxide (DMSO) [0.1 g/ml], while the water-soluble substrates SALC and CATC were dissolved directly in BH medium. The aliphatic compounds were directly added to the medium. […] Growth was monitored as a measure of CFU/ml.
# Bacterial doubling time (dt) was calculated by fitting growth curves data points into […] equation, where Q is the bacterial CFU ml^−1 at time t, Qo is the initial bacterial count in the culture, and k is the growth rate. The growth rate (k) was then used to compute dt values according to the equation: dt=ln(2)/k (in days). Values were calculated with Microsoft Excel software (Version). All experiments were carried out in duplicate.
row,Structure (SMILES),strain dt in the presence of substrate (FIG. 3)
1,"Oc1ccccc1O [CATC, catechol]",23 to 26 h
2,"O=C(O)c1ccccc1O [SALC, salicylic acid]",23 to 26 h
3,"c1ccc2ccccc2c1 [naphathalene, naphthalene]",30 to 33 h
4,c1ccc2c(c1)ccc1ccccc12 [phenanthrene],30 to 33 h
